These are yes or no findings as the source states them, for the method shown. In cells and extracts the contact can be indirect. Some binding calls cover weakened binding; strength is not graded here. For part of these data: Where a sequence is shown, tags or fusion partners need not be part of it.

Chains of the proteins cited; added tags and fusions are not shown.
UniProt P39948: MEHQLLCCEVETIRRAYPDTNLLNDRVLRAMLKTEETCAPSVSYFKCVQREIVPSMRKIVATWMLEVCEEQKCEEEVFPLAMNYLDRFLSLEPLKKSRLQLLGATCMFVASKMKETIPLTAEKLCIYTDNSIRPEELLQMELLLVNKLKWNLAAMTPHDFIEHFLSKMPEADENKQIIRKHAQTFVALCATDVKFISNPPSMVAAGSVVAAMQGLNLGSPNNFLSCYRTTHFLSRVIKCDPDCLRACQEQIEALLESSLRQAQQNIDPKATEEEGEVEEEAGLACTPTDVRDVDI
UniProt Q04827: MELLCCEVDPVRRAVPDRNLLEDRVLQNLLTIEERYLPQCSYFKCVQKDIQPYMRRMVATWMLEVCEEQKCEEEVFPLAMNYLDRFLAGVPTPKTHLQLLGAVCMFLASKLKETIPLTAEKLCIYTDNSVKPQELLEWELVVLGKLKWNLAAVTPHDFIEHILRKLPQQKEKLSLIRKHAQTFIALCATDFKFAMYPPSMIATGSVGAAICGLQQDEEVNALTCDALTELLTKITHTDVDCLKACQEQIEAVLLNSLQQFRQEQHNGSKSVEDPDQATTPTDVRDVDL
UniProt P30277: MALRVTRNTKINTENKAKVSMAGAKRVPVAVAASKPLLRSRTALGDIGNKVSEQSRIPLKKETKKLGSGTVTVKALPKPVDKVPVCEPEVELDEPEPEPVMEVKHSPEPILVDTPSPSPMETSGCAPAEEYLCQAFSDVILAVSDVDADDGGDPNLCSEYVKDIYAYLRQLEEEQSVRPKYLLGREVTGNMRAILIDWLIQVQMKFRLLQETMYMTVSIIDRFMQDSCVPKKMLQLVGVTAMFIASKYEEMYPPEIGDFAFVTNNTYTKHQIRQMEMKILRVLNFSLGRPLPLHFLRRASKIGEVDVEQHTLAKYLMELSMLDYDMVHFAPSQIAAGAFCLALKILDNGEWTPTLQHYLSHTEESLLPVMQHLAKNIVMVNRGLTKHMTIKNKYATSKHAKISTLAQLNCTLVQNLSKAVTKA
UniProt P62961: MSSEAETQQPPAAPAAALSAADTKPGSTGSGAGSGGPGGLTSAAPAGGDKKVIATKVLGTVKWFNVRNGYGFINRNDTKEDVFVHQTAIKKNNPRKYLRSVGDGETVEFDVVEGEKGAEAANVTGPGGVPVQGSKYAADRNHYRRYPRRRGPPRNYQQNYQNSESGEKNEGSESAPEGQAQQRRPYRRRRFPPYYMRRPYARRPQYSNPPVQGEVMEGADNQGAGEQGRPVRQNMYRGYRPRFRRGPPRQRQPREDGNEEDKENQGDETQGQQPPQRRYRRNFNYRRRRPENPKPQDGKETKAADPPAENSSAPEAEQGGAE

Experimental findings from paper PMC2855077 are described below.

For test [1], the target named is cyclin D1 (rat (endogenous in rat hepatoma H-411E)) (UniProt P39948). Kind of test: co-IP; whole cell extracts of rat hepatoma cells (asynchronous and nocodazole-treated) precipitated with antibodies to cyclins A, B1, D1 and D2 overnight at 4°C, Protein A Sepharose; blot with YB-1 antibody.
For test [2], the target named is cyclin D2 (rat (endogenous in rat hepatoma H-411E)) (UniProt Q04827). The test is described as above.
Test [3] deals with cyclin B1 (rat (endogenous in rat hepatoma H-411E)) (UniProt P30277). The test is described as above.
The target of test [4] is cyclin D1 (rat (endogenous in rat hepatoma H-411E)) (UniProt P39948). The experiment in a line: co-IP; nuclear and cytoplasmic extracts of nocodazole-treated (G2 arrested) rat hepatoma cells precipitated with anti-cyclin D1 or anti-YB-1 antibody, Protein A Sepharose (Supplementary Figure S3).
Test [5] has as its target APYB77GFP (UniProt Q06066). Kind of test: co-IP; whole cell extracts of nocodazole-blocked (G2/M) rat hepatoma cells incubated with the fusion proteins for 3 and 18 hr, precipitated with GFP antibody, Protein A Sepharose; blot for cyclin D1.
The target in test [6] is T1, APYB26GFP (UniProt Q06066).
T1 sequence: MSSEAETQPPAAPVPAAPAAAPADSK
The description is as above.

Test [7] has as its target APYB77GFP (UniProt Q06066). Kind of test: co-IP; whole cell extracts of asynchronous rat hepatoma cells incubated with the fusion proteins, precipitated with GFP antibody, Protein A Sepharose; blot for cyclin D1.
For test [8], the target named is T1, APYB26GFP. The description is as above.
In test [9] the target is Y-box binding protein YB-1 (rat (endogenous in rat hepatoma H-411E)) (UniProt P62961). Kind of test: co-IP; nuclear and cytoplasmic extracts of nocodazole-treated (G2 arrested) rat hepatoma cells precipitated with anti-cyclin D1 or anti-YB-1 antibody, Protein A Sepharose (Supplementary Figure S3).

Turning to “Y-box binding protein YB-1 (from UniProt P62961 1-322)”, the binding entry is recorded as “binds” in test [1], “binds weakly” in [2], “binds weakly” in test [3] and “binds” in [4].

Regarding cyclin D1 (from UniProt P39948 1-295), the binding entry with APYB77GFP [5] is listed as “binds”; with APYB26GFP [6] it was “binds”; with APYB77GFP [7] it was “no binding (condition: asynchronous cells (no nocodazole))”; with APYB26GFP [8] it was “no binding (condition: asynchronous cells (no nocodazole))”; in test [9], “binds”.
